These are yes or no findings as the source states them, for the method shown. Some binding calls cover weakened binding; strength is not graded here.
Tests used:
[1] = molecular target: recombinant protein comprising the whole extracellular part of IL1RI (UniProt P14778); assay: SPR, IL1RI immobilised on sensor chip
[2] = molecular target: recombinant protein comprising the whole extracellular part of IL1RI (UniProt P14778); assay: SPR (BiaCore 2000), IL1RI ectodomain immobilised on CM5 chip

By UniProt entry, the sequences of proteins in these tests, tags left out. Residues count along the entry.
UniProt P14778, residues 18-336: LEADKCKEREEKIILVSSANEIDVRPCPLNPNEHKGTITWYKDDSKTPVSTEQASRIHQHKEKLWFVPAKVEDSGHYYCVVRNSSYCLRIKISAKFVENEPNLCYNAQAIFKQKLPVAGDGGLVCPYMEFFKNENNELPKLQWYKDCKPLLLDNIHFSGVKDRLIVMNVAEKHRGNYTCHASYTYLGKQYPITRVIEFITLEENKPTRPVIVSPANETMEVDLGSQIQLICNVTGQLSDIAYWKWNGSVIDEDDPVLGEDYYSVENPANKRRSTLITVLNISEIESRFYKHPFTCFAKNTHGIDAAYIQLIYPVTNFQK

SGRKSSKMQA [Ilantafin peptide (SEQ ID NO:1), SGRKSSKMQA]
binding [1]: binds | binding [2]: binds
